The target in assay [1] is T1, ABCG36-GFP (PEN3:PEN3-GFP), N. benthamiana (Arabidopsis thaliana) (UniProt Q9XIE2).
T1 sequence: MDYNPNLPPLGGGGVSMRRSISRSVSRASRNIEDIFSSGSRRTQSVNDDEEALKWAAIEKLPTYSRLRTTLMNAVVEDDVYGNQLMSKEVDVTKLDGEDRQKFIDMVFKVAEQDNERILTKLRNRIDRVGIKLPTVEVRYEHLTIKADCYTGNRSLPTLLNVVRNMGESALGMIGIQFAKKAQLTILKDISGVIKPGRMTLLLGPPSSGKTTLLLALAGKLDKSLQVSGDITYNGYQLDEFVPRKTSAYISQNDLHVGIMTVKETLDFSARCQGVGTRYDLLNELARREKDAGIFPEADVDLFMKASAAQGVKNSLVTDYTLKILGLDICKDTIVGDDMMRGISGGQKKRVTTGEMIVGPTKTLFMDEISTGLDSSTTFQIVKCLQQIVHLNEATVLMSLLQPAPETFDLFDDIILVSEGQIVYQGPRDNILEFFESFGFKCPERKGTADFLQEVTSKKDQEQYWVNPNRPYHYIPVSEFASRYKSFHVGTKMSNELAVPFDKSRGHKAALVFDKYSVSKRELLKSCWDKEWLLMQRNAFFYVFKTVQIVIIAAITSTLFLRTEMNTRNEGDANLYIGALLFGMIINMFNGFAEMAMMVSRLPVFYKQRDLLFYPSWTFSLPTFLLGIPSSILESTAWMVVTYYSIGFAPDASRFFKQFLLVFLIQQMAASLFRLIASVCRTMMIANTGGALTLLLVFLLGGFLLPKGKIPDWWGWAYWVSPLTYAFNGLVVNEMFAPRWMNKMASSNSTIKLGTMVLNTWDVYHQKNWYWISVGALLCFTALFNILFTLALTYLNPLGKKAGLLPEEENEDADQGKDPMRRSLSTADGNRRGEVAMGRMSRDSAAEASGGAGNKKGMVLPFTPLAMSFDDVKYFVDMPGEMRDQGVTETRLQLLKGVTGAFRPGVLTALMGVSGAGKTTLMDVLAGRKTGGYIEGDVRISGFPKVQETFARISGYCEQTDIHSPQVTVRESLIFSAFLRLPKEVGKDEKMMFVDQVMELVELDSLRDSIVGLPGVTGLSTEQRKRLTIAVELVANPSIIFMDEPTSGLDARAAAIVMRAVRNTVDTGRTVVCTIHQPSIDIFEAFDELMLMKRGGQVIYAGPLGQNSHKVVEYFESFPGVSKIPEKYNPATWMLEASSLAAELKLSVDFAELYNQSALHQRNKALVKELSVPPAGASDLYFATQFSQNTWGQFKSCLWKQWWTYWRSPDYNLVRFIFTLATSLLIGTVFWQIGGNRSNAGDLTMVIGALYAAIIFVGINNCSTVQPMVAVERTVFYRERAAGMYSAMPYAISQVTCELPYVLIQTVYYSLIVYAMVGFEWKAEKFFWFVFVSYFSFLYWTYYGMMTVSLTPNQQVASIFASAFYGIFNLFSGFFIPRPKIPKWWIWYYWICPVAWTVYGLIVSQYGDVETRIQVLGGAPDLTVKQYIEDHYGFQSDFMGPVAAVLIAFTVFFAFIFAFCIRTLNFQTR
The assay can be described thus: co-IP.

For assay [2], the target named is T1, ABCG36-GFP (PEN3:PEN3-GFP), N. benthamiana (Arabidopsis thaliana). The assay can be described thus: FRET or BRET. On the technique in general: BRET reads energy transfer from a luciferase to a nearby fluorophore.

The source of these data is doi:10.1101/2022.05.11.491457.

These are yes or no findings as the source states them, for the method shown. In cells and extracts the contact can be indirect. Some entries that bind do so weakly or less than the wild type. Where a sequence is shown, tags or fusion partners need not be part of it.

B1: ALK1-mCherry (35S:ALK1-mCherry) (receptor, UniProt Q9M8T0 24-627)
chain: SDLESDRRALLAVRNSVRGRPLLWNMSASSPCNWHGVHCDAGRVTALRLPGSGLFGSLPIGGIGNLTQLKTLSLRFNSLSGPIPSDFSNLVLLRYLYLQGNAFSGEIPSLLFTLPSIIRINLGENKFSGRIPDNVNSATRLVTLYLERNQLSGPIPEITLPLQQFNVSSNQLNGSIPSSLSSWPRTAFEGNTLCGKPLDTCEAESPNGGDAGGPNTPPEKKDSDKLSAGAIVGIVIGCVVGLLLLLLILFCLCRKRKKEENVPSRNVEAPVAAATSSAAIPKETVVVVPPAKATGSESGAVNKDLTFFVKSFGEFDLDGLLKASAEVLGKGTVGSSYKASFEHGLVVAVKRLRDVVVPEKEFRERLHVLGSMSHANLVTLIAYYFSRDEKLLVFEYMSKGSLSAILHGNKGNGRTPLNWETRAGIALGAARAISYLHSRDGTTSHGNIKSSNILLSDSYEAKVSDYGLAPIISSTSAPNRIDGYRAPEITDARKISQKADVYSFGVLILELLTGKSPTHQQLNEEGVDLPRWVQSVTEQQTPSDVLDPELTRYQPEGNENIIRLLKIGMSCTAQFPDSRPSMAEVTRLIEEVSHSSGSPNPVSD
On to B1, for which the binding result in assay [1] and in assay [2] was “binds” in each case.
